Test results from patent publication US7553105B1, “Method and compositions for treatment of subsurface contaminants” (Colorado School of Mines, priority 2005, dated 2009).
Several values for one entry are separate records, joined by “and”; a condition that tells them apart may be missing. Identical values can stand only once.

Assay: 2-D flow-through cell co-injection flush with 3.5 wt % DOWFAX 8390 and 4 wt % KMnO4
[1] = Transect 1, sampling port C, pre-flush 31
[2] = Transect 1, sampling port D, pre-flush 50
[3] = Transect 1, sampling port E, pre-flush 9
[4] = Transect 1, sampling port F, pre-flush <1
[5] = Transect 2, sampling port A, pre-flush 146
[6] = Transect 2, sampling port B, pre-flush 84
[7] = Transect 2, sampling port G, pre-flush 78
[8] = effluent composite, pre-flush 12

In the case of `ClC(Cl)=C(Cl)Cl` [PCE, tetrachloroethene], the “PCE concentration in port B after permanganate/surfactant front entered source zone” value (FIG. 6, about 30 minutes after start of flush, increased from 213 mg/L) is reported as 1078 mg/L, the “PCE concentration in port F throughout the co-injection experiment” value (FIG. 7, absence of downward vertical migration) is reported as under 1 mg/L and the “PCE concentration in port E one hour after initiation of co-injection flush” value (FIG. 7, increased from 176 mg/L) is reported as 737 mg/L. For the same compound, the “PCE concentration in port E two hours later” value (FIG. 7, two hours after the 737 mg/L peak) was 3 mg/L, the “PCE concentration, 8-Days Post Flush” value [1] was under 1 mg/L and the “PCE concentration, During Flush (t = 5 hrs)” value [1] was 28 mg/L. For the same compound, the “PCE concentration, 8-Days Post Flush” value [2] was 66 mg/L, the “PCE concentration, During Flush (t = 5 hrs)” value [2] was 48 mg/L and the “PCE concentration, 8-Days Post Flush” value [3] was 33 mg/L. For the same compound, the “PCE concentration, During Flush (t = 5 hrs)” value [3] was 287 mg/L, the “PCE concentration, 8-Days Post Flush” value [4] was under 1 mg/L and the “PCE concentration, During Flush (t = 5 hrs)” value [4] was under 1 mg/L. The “PCE concentration, 8-Days Post Flush” value [5] was 137 mg/L, the “PCE concentration, During Flush (t = 5 hrs)” value [5] was 183 mg/L and the “PCE concentration, 8-Days Post Flush” value [6] was 118 mg/L. For the same compound, the “PCE concentration, During Flush (t = 5 hrs)” value [6] was 1296 mg/L and 824 mg/L, the “PCE concentration, 8-Days Post Flush” value [7] was 263 mg/L and the “PCE concentration, During Flush (t = 5 hrs)” value [7] was 824 mg/L and 1296 mg/L. The “PCE concentration, 8-Days Post Flush” value (Transect 2, sampling port H, pre-flush 12) was 1 mg/L, the “Effluent PCE Concentration, 8 Days Post-Flush” value [8] was 37 mg/L and the “Effluent PCE Concentration, During Flush (t = 5 hrs)” value [8] was 6 mg/L. It also gave a PCE mass removal (from effluent PCE concentrations over 10-hour (2 PV) co-injection) of 23%.
